# Source: the supplement of paper PMC3334620
# The full ranking holds about 33,000 sequences; the median of “E-score (-0.5 to 0.5)” is about -0.0034, and the highest 2% start at about 0.25. The list shows a part of the results.
# Molecular target: T1, Yap3 (UniProt P38749)
# T1 sequence: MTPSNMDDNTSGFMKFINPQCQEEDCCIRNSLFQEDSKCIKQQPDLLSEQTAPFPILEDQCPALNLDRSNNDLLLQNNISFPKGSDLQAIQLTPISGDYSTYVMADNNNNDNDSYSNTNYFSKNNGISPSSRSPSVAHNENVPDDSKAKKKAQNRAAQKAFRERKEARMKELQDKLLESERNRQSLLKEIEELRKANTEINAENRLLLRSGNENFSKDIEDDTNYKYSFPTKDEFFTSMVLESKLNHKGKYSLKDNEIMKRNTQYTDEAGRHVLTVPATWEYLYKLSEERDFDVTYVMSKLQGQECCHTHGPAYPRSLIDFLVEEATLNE
# Assay: PBM E-score (8-mer binding enrichment) (E-score (-0.5 to 0.5)); higher = stronger / more preferred TF binding
# Details: protein concentration: 100 nM; construct: GST-full length
# Method in brief: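 PURExpress in vitro transcription/translation supplied GST-tagged yeast transcription factors, either full-length or DNA-binding domain. Applied at about 100-200 nM to universal all-10-mer Agilent arrays double-stranded by primer extension, the bound protein was detected with fluorescent anti-GST. E-scores, modified Wilcoxon-Mann-Whitney statistics, were given by the Universal PBM Analysis Suite to ungapped eight-base words pooled with their reverse complements after masliner normalisation.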
row,Sequence,PBM E-score
1,GGGTGGGA,0.0567
2,GATCCTTA,-0.00302
3,ACTACTAA,0.0558
4,CCCGGTAA,-0.139
5,AATCTTTA,0.0419
6,CTAGTCTA,-0.146
7,TCCCTGAA,0.0587
8,AACTCTAT,-0.0612
9,AAATTCGT,0.312
10,ACCAGTTG,0.0294
11,GTGACCAC,-0.236
12,CCTAGACC,-0.146
13,CTACCATA,0.152
14,TAGCAAAA,0.0444
15,AACCAGGA,0.0985
16,CCTTGGTC,-0.183
17,CTATAGAG,-0.161
18,CGCCACGC,-0.193
19,CGTGTAAA,-0.0448
20,AAAAGCTC,0.0576
21,CGCTTGTC,0.0721
22,GAGACCGC,-0.207
23,GTGCTGTA,-0.165
24,AATCGTAA,0.191
25,CCAGCATC,-0.153

# Another view of part of the listing above.
row | Sequence | PBM E-score
13 | CTACCATA | 0.152
23 | GTGCTGTA | -0.165

# (further entries)

row,Sequence,PBM E-score
1,CATGAATC,-0.0443
2,CTGATCTA,-0.166
3,ACCGCTCT,-0.0907
4,AGCAGCGG,-0.196
5,CTACCCCA,0.0317
6,ATAAAGAA,0.26
7,AATACCAT,0.0373
8,GGAAGACA,0.0335
9,TAGTCATA,0.217
10,ACTATTAG,0.136
11,CATGTAAA,0.0358
12,AAAAGGTA,-0.0209
13,ACTCCGAA,-0.142
14,AGTCAGCC,0.0707
15,CCAATGGC,-0.12
16,GATAAAAC,0.219
17,TACCCGGA,0.0391
18,CCGAGTCA,-0.0996
19,TCTGGTCA,0.00698
20,ACTACGGA,0.0435
21,AACACTGC,0.186
22,ATTCAAGC,0.0943
23,ACCAGGGC,-0.283
24,ATCGGTAG,0.11
25,CAATCATA,0.174

row,Sequence,PBM E-score
1,TAAGGGCA,-0.0126
2,CACCAAAA,0.102
3,AGGAGTGG,-0.245
4,CACTAGGC,-0.0392
5,CAAGGGCC,-0.275
6,ATAGTTTG,0.194
7,AAGTTCCA,-0.098
8,AGCCACGC,-0.0981
9,TCCCCCCA,-0.325
10,CAAATGAA,0.14
11,TCTACACA,0.042
12,AAAACCCC,-0.249
13,GCGGTTTA,0.11
14,ATGCGATA,0.0202
15,ATGCGAGG,0.107
16,AATCCTAG,0.0605
17,GCCTTGAA,-0.185
18,CCCGCAGA,-0.0892
19,CAGCAACG,0.233
20,GGACGACC,-0.359
21,AGCTAGAA,0.0175
22,AGCTGAGA,-0.0704
23,AAACGTTC,0.044
24,ATGGCTCC,-0.118
25,CCCGGTCG,-0.211

row,Sequence,PBM E-score
1,AAATTGCC,0.172
2,CCGCGACC,-0.157
3,GAGGCTCC,-0.116
4,TAAAGTTA,0.243
5,TACGGTCA,0.0709
6,AGGTTGCG,-0.133
7,CGAGCTAC,-0.0458
8,ACCGTTGC,-0.0634
9,CCTACGGC,-0.172
10,CACGACTG,-0.0983
11,TCGCGGCA,-0.0618
12,GGAGGTCA,-0.294
13,AGGACCAT,-0.0436
14,CATTAATC,0.0977
15,AAACATAC,0.0457
16,AGTCCTAC,-0.125
17,GATCATAA,0.209
18,ATGCGATC,0.0595
19,ATGAAAGG,0.044
20,CCACGCAG,-0.167
21,GCGAACCA,0.0248
22,ACCATACT,0.188
23,CGACTCCC,-0.136
24,TACCTTGA,0.0307
25,AATTATAA,0.224

row,Sequence,PBM E-score
1,ATACCGAT,0.0926
2,TAAGAAGA,0.152
3,AAAGATGC,-0.00735
4,TAAATGGA,0.122
5,GAAGACCC,-0.137
6,CCCAAATA,-0.00299
7,CTAATAGC,-0.0918
8,AAATAGGC,0.0995
9,ATGTCAAG,-0.0356
10,AGTATGGG,-0.092
11,GGAGCCTA,-0.0407
12,CATAAGAA,0.21
13,GAGGCGCA,-0.0003
14,GTATAAAC,0.206
15,AAGTGCGC,0.0312
16,CATGACAG,-0.0116
17,ATACATAG,0.112
18,GTGAAATA,0.0605
19,ATAAGAGA,0.0807
20,AACTTCAA,0.04
21,CTACGCGA,0.0426
22,ATAAAACC,0.146
23,GCAAGCGC,0.0309
24,ACGAAAGT,0.0801
25,AAATGAGT,0.23

row,Sequence,PBM E-score
1,GGACACCC,-0.305
2,TGGACCCA,-0.0603
3,AAGCGAGC,0.0346
4,AACCAATC,0.087
5,TGACAAAA,0.207
6,TGCGCCCA,-0.158
7,TCACGGGA,0.154
8,AGATACAT,0.179
9,GGAAAGTA,0.164
10,AACTGTGA,0.101
11,CCCGTCAG,-0.308
12,ACCCCTCA,-0.17
13,GAACCTGA,-0.0153
14,CAGCTTAA,-0.0332
15,CATCGCAA,-0.19
16,ACCTTCGA,-0.133
17,GGACAACA,0.0579
18,ACACGACT,0.0807
19,CTATATTA,0.325
20,CCCATAGC,-0.245
21,ATGACCCA,0.198
22,CCAAATTC,0.0333
23,AGGGGACA,-0.04
24,ATTGTAGG,0.25
25,CCCTGGAG,-0.304

row,Sequence,PBM E-score
1,CGGGCAAG,-0.0825
2,CTACTGAA,-0.155
3,TACTTCAA,0.191
4,GTCGGGAA,-0.0187
5,CCCCCGTA,-0.319
6,CCTACCTC,-0.162
7,CAAGGTAC,-0.113
8,CATGTCTC,0.0762
9,GGTGGCAA,-0.114
10,AGAGTTGG,-0.0231
11,CGATAAGA,0.0476
12,CAACGTAA,0.124
13,ATAATTGC,0.127
14,CGTCTGAG,-0.0194
15,AAGAAGTG,0.0425
16,ATTACAGA,0.11
17,ATACGTAC,0.0322
18,CGTTCATC,-0.0385
19,GAGCCCAC,-0.212
20,CCTGAACA,0.00555
21,ACGGTGGA,-0.139
22,AGTGAAAT,0.0637

# Taken from above.
# In PBM E-score, CAACGTAA reads 0.124
# In PBM E-score, CGGGCAAG reads -0.0825
# In PBM E-score, CGATAAGA reads 0.0476
